These are yes or no findings as the source states them, for the method shown. Some entries that bind do so weakly or less than the wild type.
Columns and labels:
[1] = molecular target: biotinylated Aβ1-40 peptide; experiment: ELISA, biotinylated longer peptides
[2] = molecular target: biotinylated complete Aβ1-42 peptide (human sequence) (human); experiment: ELISA, biotinylated longer peptides
[3] = molecular target: biotinylated complete Aβ1-42 peptide (human sequence) (human); experiment: peptide library ELISA, complete Aβ1-42 as positive control
[4] = molecular target: Aβ1-42 peptide fraction consisting primarily of monomers (LMW monomer fraction from SEC); experiment: ELISA on coated SEC fractions
[5] = molecular target: Aβ1-42 peptide fraction enriched in oligomers (high molecular weight fraction from SEC); experiment: ELISA on coated SEC fractions

Measured: binding

B1: mouse monoclonal antibody ACI-11-Ab-9 (antibody, V domains shown)
VH: QVQLQQSDAELVKPGASVKISCKVSGYTFTDHTIHWMKQRPEQGLEWIGYIYPRDGSTKYNEKFKGKATLTADKSSSTAYMQLNSLTSEDSAVYFCARDYGYAFDYWGQGTTLTVSS
VL: QAVVTQESALTTSPGGTVILTCRSSTGAVTTSNYANWVQEKPDHLFTGLIGGTSNRAPGVPVRFSGSLIGDKAALTITGAQTEDDAMYFCALWYSTHYVFGGGTKVTVL
binds: [1] | [2] | [3]

B2: mouse monoclonal antibody ACI-12-Ab-11 (antibody, V domains shown)
VH: QVQLQQSDAELVKPGASVKISCKVSGYTFTDHTIHWMKQRPEQGLEWIGYIYPRDGSTKYNEKFKGKATLTADKSSSTAYMQLNSLTSEDSAVYFCARDYGYAFDYWGQGTTLTVSS
VL: QAVVTQESALTTSPGGTVILTCRSSTGAVTTSNYANWVQEKPDHLFTGLIGGTSNRAPGVPVRFSGSLIGDKAALTITGAQTEDDAMYFCALWYSTHYVFGGGTKVTVL
binds: all assays above

Source: patent publication US20160000910A1
